PubChem BioAssay AID1259295 – Sanger Institute | 2017

- Assay: 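Kinase knockdowns that sensitise colorectal cancer cells to BYL719, cetuximab or trametinib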 (secondary deconvolution screen, four single siRNAs per gene)
- Cells: human COLO678 colorectal cancer cells
- Reagent: single siRNA against human genes
- Challenge: anchor drug BYL719 at 1 µM, cetuximab at 5 µg/ml or trametinib at 10 nM, or DMSO vehicle alone
- Read-out: 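Averaged cell survival relative to control pool 2 with DMSO, plus synergy scores weighing knockdown combined with each of three drugs against either separately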
- Scale: synergy score with BYL719: higher = stronger combined killing with BYL719; synergy score with cetuximab: higher = stronger combined killing with cetuximab; synergy score with trametinib: higher = stronger combined killing with trametinib
- Call rule: 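a single siRNA is called active when its synergy score is above 0.10 for at least one of the three drugs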
Shown is a random part of 160 reagents tested. Of all reagents, 40 (25%) are marked active. 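How the synergy score is calculated is not defined; single-siRNA calls need support from other siRNAs and cell lines.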 The numbers tell different reagents against one gene apart. Further read-outs or replicates are left out here. Reagent sequences are not shown. Not stated in the record: the amount of reagent, the time to read-out.

| target | siRNA no. | synergy score with BYL719 | synergy score with cetuximab | synergy score with trametinib | Call |
| --- | --- | --- | --- | --- | --- |
| STK36 | 1 | -0.215 | -0.0934 | 0.0671 | inactive |
| STK36 | 2 | -0.206 | -0.268 | 0.00746 | inactive |
| STK36 | 3 | -0.134 | -0.0181 | -0.0517 | inactive |
| STK36 | 4 | -0.14 | -0.0577 | 0.0455 | inactive |
| GTF2H1 | 1 | -0.0676 | -0.116 | -0.0486 | inactive |
| GTF2H1 | 2 | -0.0784 | 0.027 | 0.0903 | inactive |
| GTF2H1 | 3 | -0.112 | -0.0635 | 0.158 | active |
| GTF2H1 | 4 | -0.088 | 0.0139 | 0.1 | active |
| CDKN2D | 1 | 0.0212 | -0.00271 | 0.053 | inactive |
| CDKN2D | 2 | -0.0708 | -0.136 | 0.0479 | inactive |
| CDKN2D | 3 | -0.0515 | 0.035 | 0.0365 | inactive |
| CDKN2D | 4 | -0.0113 | 0.0931 | 0.0646 | inactive |
| CAMK2N1 | 1 | -0.046 | -0.119 | -0.0113 | inactive |
| CAMK2N1 | 2 | 0.298 | -0.0919 | 0.0535 | active |
| CAMK2N1 | 3 | 0.193 | -0.0253 | 0.143 | active |
| CAMK2N1 | 4 | 0.0341 | -0.027 | -0.0222 | inactive |
| MAPK4 | 1 | 0.0189 | -0.119 | 0.086 | inactive |
| MAPK4 | 2 | -0.0222 | -0.119 | 0.118 | active |
| MAPK4 | 3 | 0.0856 | 0.00726 | 0.0948 | inactive |
| MAPK4 | 4 | 0.0411 | -0.0223 | 0.0405 | inactive |
| PIK3CA | 1 | 0.0081 | -0.0478 | -0.0121 | inactive |
| PIK3CA | 2 | -0.0826 | -0.0768 | 0.00428 | inactive |
| PIK3CA | 3 | 0.0941 | -0.0344 | 0.14 | active |
| PIK3CA | 4 | -0.0274 | -0.0406 | 0.0513 | inactive |
| PAK1 | 1 | -0.126 | -0.102 | 0.118 | active |
| PAK1 | 2 | -0.00428 | -0.0423 | 0.0372 | inactive |
| PAK1 | 3 | -0.071 | -0.0979 | -0.029 | inactive |
| PAK1 | 4 | -0.0999 | 0.0952 | 0.16 | active |
| BRAF | 1 | 0.0911 | -0.0567 | -0.0255 | inactive |
| BRAF | 2 | 0.0747 | 0.11 | 0.0303 | active |
| BRAF | 3 | 0.0168 | -0.118 | 0.121 | active |
| BRAF | 4 | -0.0438 | -0.0422 | 0.0968 | inactive |
| MAP3K8 | 1 | 0.0449 | -0.0314 | 0.162 | active |
| MAP3K8 | 2 | 0.121 | 0.0551 | 0.0649 | active |
| MAP3K8 | 3 | -0.14 | -0.128 | 0.0526 | inactive |
| MAP3K8 | 4 | -0.0559 | -0.0579 | -0.0249 | inactive |
| EPHA6 | 1 | -0.0877 | -0.0963 | -0.0481 | inactive |
| EPHA6 | 2 | -0.054 | 0.0322 | 0.0854 | inactive |
| EPHA6 | 3 | 0.0216 | 0.0967 | 0.0578 | inactive |
| EPHA6 | 4 | -0.104 | 0.022 | -0.0025 | inactive |
| MAPKAPK2 | 1 | -0.02 | -0.119 | -0.0287 | inactive |
| MAPKAPK2 | 2 | 0.0687 | -0.119 | 0.24 | active |
| MAPKAPK2 | 3 | 0.0219 | -0.0762 | 0.0463 | inactive |
| MAPKAPK2 | 4 | 0.12 | 0.0225 | 0.0403 | active |
| CSNK2A2 | 1 | -0.205 | -0.0687 | 0.064 | inactive |
| CSNK2A2 | 2 | -0.0905 | -0.04 | 0.141 | active |
| CSNK2A2 | 3 | -0.227 | -0.229 | -0.0627 | inactive |
| CSNK2A2 | 4 | -0.0576 | 0.00582 | -0.0285 | inactive |
| GRK5 | 1 | -0.0877 | -0.119 | -0.0589 | inactive |
| GRK5 | 2 | -0.105 | -0.00425 | 0.186 | active |
| GRK5 | 3 | 0.0903 | -0.00109 | 0.229 | active |
| GRK5 | 4 | -0.102 | 0.0769 | 0.0208 | inactive |
| RPS6KA4 | 1 | 0.0802 | 0.0333 | 0.103 | active |
| RPS6KA4 | 2 | 0.0318 | -0.0391 | 0.0571 | inactive |
| RPS6KA4 | 3 | 0.0309 | -0.0259 | 0.0666 | inactive |
| RPS6KA4 | 4 | -0.0871 | -0.00109 | -0.0352 | inactive |
| SYK | 1 | -0.0647 | 0.00997 | 0.0461 | inactive |
| SYK | 2 | -0.168 | 0.0294 | 0.0592 | inactive |
| SYK | 3 | -0.0539 | -0.0847 | 0.0775 | inactive |
| SYK | 4 | -0.086 | 0.0281 | -0.0223 | inactive |

Part of the list above, set out differently:
BRAF #2
- synergy score with BYL719: 0.0747
- synergy score with cetuximab: 0.11
- synergy score with trametinib: 0.0303
- Call: active

BRAF #3
- synergy score with BYL719: 0.0168
- synergy score with cetuximab: -0.118
- synergy score with trametinib: 0.121
- Call: active

BRAF #4
- synergy score with BYL719: -0.0438
- synergy score with cetuximab: -0.0422
- synergy score with trametinib: 0.0968
- Call: inactive

MAP3K8 #1
- synergy score with BYL719: 0.0449
- synergy score with cetuximab: -0.0314
- synergy score with trametinib: 0.162
- Call: active

MAP3K8 #2
- synergy score with BYL719: 0.121
- synergy score with cetuximab: 0.0551
- synergy score with trametinib: 0.0649
- Call: active

MAP3K8 #3
- synergy score with BYL719: -0.14
- synergy score with cetuximab: -0.128
- synergy score with trametinib: 0.0526
- Call: inactive

MAP3K8 #4
- synergy score with BYL719: -0.0559
- synergy score with cetuximab: -0.0579
- synergy score with trametinib: -0.0249
- Call: inactive

EPHA6 #1
- synergy score with BYL719: -0.0877
- synergy score with cetuximab: -0.0963
- synergy score with trametinib: -0.0481
- Call: inactive
